PubChem BioAssay AID1259254 | NCATS, 2017
The deposit covers about 59,000 reagents; shown is a part drawn at random. Of all reagents, about 1,550 (2.6%) got an active call. 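G2 share is only a proxy for re-replication; each gene was hit by three separate siRNAs, and active genes were retested.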 A number with no mark means an inactive call. The numbers tell different reagents against one gene apart. Further read-outs or replicates are left out here. Reagent sequences are not shown. The record does not give: the amount of reagent.

Test: 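Gene knock-downs that lead to re-replication, shown by excess G2 DNA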 (primary screen)
Cell system: human HCT116 colorectal cancer cells
Reagent: single siRNA against human genes
Time to read-out: 3 days
Detection: 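Nuclei stained with Hoechst and imaged; cell-cycle phase assigned by DNA content; G2 share scaled per plate, non-targeting siRNA 0%, GMNN siRNA 100%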
Scale: G2 robust z-score: higher = more G2 cells, more excess DNA replication
Active means: 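An siRNA counts as active if its G2 robust z-score lies at least 5 MADs above the screen median; here such calls match roughly 38% of GMNN control or more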

G2 robust z-score, by gene and reagent
CDK5RAP1: #1 2.35; #2 -0.0276; #3 2.46
LRRC32: #1 9.8 (active); #2 -0.491; #3 1.33
RPRD1B: #1 -0.147; #2 -0.431; #3 1.54
HACL1: #1 1.81; #2 0.821; #3 1.01
GDI2: #1 -0.714; #2 -0.337; #3 0.378
TCF20: #1 -0.0941; #2 0.345; #3 1.14
ANK1: #1 -0.922; #2 0.179; #3 0.523

Targets listed so far whose gene name starts with C or c (3):
G2 robust z-score, by gene and reagent
CDK5RAP1: #1 2.35; #2 -0.0276; #3 2.46

Next reagents follow.
G2 robust z-score, by gene and reagent
SNRNP70: #1 0.941; #2 -0.236; #3 -0.153
BTN1A1: #1 -0.489; #2 -0.0951; #3 -1.11
INHBA: #1 2.96; #2 -0.536; #3 0.0402
SACS: #1 -0.359; #2 0.616; #3 -0.182
LCN1P2: #1 2.75; #2 -0.588; #3 -0.199
ZWINT: #1 1.8; #2 -0.857; #3 0.922
SPRR3: #1 -0.955; #2 -0.381; #3 0.672
EPHX4: #1 2.5; #2 -0.97; #3 0.575
MCFD2: #1 2.32; #2 1.48; #3 -1.21
